From PMC11958688
Results are given in words; binding and its absence hold for the method and conditions named. In cells and extracts the contact can be indirect. Some results given as binding are weak or reduced against the parent protein; the word gives no strength.

Chains of the proteins cited; added tags and fusions are not shown. Lines headed by an entry give the natural chain unless they say otherwise; changes in a name come on top. A line that says so, or that is headed by a name, gives the form on record, which may keep a tag or linker.
full-length human NTSR1 M288A, Flag at N-terminus and LgBiT at C-terminus (P30989, form named): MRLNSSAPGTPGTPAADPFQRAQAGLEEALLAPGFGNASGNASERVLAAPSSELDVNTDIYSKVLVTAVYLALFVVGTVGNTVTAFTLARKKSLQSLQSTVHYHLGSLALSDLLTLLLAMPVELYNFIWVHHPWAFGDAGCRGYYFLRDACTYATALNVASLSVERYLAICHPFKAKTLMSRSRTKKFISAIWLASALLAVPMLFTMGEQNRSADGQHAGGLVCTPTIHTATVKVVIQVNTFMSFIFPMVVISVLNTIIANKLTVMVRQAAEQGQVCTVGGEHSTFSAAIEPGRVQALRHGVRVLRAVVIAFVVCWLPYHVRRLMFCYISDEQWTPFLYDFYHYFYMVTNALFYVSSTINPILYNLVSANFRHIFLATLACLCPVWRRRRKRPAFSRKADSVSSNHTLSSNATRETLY
full-length human NTSR1 F286A, Flag at N-terminus and LgBiT at C-terminus (P30989, form named): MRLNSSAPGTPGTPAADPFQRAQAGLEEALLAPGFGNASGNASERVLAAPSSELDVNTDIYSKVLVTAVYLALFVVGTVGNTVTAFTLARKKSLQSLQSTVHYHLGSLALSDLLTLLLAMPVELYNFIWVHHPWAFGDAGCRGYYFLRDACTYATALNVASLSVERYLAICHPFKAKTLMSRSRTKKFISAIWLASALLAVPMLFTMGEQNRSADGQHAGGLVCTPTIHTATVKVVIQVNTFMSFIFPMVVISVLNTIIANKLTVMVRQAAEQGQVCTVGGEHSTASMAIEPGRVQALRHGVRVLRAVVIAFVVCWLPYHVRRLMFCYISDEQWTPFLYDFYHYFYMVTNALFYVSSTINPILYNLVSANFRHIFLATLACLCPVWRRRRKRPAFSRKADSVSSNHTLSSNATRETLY
full-length human NTSR1 L298A, Flag at N-terminus and LgBiT at C-terminus (P30989, form named): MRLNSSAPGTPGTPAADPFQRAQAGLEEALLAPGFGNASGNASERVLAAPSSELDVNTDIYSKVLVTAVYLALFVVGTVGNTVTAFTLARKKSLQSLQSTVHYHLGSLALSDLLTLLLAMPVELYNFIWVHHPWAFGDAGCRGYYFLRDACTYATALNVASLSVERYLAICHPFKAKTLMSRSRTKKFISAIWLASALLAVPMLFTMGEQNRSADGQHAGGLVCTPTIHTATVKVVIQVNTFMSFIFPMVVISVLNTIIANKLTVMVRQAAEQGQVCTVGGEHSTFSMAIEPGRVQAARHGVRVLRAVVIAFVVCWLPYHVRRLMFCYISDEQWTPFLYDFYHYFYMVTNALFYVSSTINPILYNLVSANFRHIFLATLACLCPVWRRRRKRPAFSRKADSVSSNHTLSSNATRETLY
UniProt P49407: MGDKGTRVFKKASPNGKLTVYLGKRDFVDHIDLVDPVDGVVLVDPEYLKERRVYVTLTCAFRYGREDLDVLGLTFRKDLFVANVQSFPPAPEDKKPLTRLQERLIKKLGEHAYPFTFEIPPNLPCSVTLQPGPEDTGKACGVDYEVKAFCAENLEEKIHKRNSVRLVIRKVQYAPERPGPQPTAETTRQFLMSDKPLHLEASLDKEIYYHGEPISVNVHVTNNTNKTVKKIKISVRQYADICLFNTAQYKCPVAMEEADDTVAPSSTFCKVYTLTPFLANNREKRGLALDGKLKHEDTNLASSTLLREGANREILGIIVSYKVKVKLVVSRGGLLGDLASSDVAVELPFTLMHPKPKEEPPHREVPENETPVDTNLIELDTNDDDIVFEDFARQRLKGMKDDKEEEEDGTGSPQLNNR

Legend:
Experiment in all cases: split reporter; HEK293T cells transfected with NTSR1-LgBiT and SmBiT-βArr1 at 1:1; 10 μM furimazine; luminescence read for 20 min after addition of ligands (SBI-553); room temperature
[1] = biological target: full-length human NTSR1 M288A, Flag at N-terminus and LgBiT at C-terminus (human) (UniProt P30989)
[2] = biological target: full-length human NTSR1 wild type, Flag at N-terminus and LgBiT at C-terminus (human) (UniProt P30989)
[3] = biological target: full-length human NTSR1 F286A, Flag at N-terminus and LgBiT at C-terminus (human) (UniProt P30989)
[4] = biological target: full-length human NTSR1 L298A, Flag at N-terminus and LgBiT at C-terminus (human) (UniProt P30989)

binding [1]: binds
binding [2]: binds
binding [3]: binds
binding [4]: binds
Substance: human βArr1 with SmBiT at its N-terminus (from UniProt P49407 1-418)
